Consider 16 molecules from PubChem BioAssay AID220 (DTP/NCI, 2004).

This test deals with CD8F1 mice, subcutaneous mammary adenocarcinoma, T/C%. The test can be described thus: NCI In Vivo Anticancer Drug Screen. Data for tumor model Mammary Adenocarcinoma CD8F1 (subcutaneous) in CD8F1. Particulars: higher T/C = larger tumour. The method, boiled down: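 Antitumor activity is assessed in transplantable-tumor mice by comparing the treated group with a vehicle-treated control group. Survival or tumor size serves as the measure, reported as T divided by C.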

The list shows only some results of the screen, not a fair sample: it is rich in T/C values a quarter to a half above the control, in often repeated tests (any T/C) and in doses without a T/C. Other doses and runs of a compound stand elsewhere. T/C is the treated group as % of the vehicle group. Schedules are NCI's codes, read here as Q, the interval in days (D) or hours (H), X, the number of doses. Some values lie below zero, which means that the treated tumours became smaller. Some T/C values are followed by the survivors on the day toxicity was checked, most often the fifth; where none is given, no animal had died by that day. Some doses have a count of surviving animals in place of a T/C: the source holds a T/C of zero for them, seemingly a mark for toxic or unscored doses. Counts of survivors are from the toxicity check (mostly the fifth day) where no day follows; animals may have died later. Some doses were run more than once; the results are listed from low to high. Starred links: 1 amine or outer side, 2 acyl side, 3 side chain; linkers in the order of their positions; H or OH if unused. Non-standard residues stand in square brackets, D forms with d. Residues, ends and D or L forms follow the SMILES beside them. *: point of attachment. X2 = CCC(=O)CC1CC(C)CC(C(=O)[*:2])N1[*:1]; X1 = CCCCCCCCC(C)C(=O)*; Aib = CC(C)(N)C(=O)O; X3 = CC(CN(C)CCO)N*

As to `O=P1(NCCCl)OCCCN1CCCl` (centres undefined), the survivor count (T/C endpoint: median tumor weight (est.), dose: 200.0 mg/kg/injection, schedule: Q07DX005 (ip), vehicle: saline) was 4 of 10. In addition, the T/C was 90 % of control (T/C endpoint: median tumor weight change, dose: 50.0 mg/kg/injection, schedule: Q01DX001 (ip), vehicle: saline, evaluated on day 27); 77 % of control (T/C endpoint: median tumor weight change, dose: 50.0 mg/kg/injection, schedule: Q01DX001 (ip), vehicle: saline, evaluated on day 28); 64 % of control [9 of 10 alive on day 31] (T/C endpoint: median tumor weight change, dose: 50.0 mg/kg/injection, schedule: Q01DX001 (ip), vehicle: saline, evaluated on day 31); 75 % of control (T/C endpoint: median tumor weight change, dose: 50.0 mg/kg/injection, schedule: Q01DX001 (ip), vehicle: saline, evaluated on day 37); 55 % of control (T/C endpoint: median tumor weight change, dose: 100.0 mg/kg/injection, schedule: Q01DX001 (ip), vehicle: saline, evaluated on day 27); 31 % of control (T/C endpoint: median tumor weight change, dose: 100.0 mg/kg/injection, schedule: Q01DX001 (ip), vehicle: saline, evaluated on day 28). Besides, the T/C reads like this: (T/C endpoint: median tumor weight change, dose: 100.0 mg/kg/injection, schedule: Q01DX001 (ip), vehicle: saline, evaluated on day 31) 44 % of control; (T/C endpoint: median tumor weight change, dose: 100.0 mg/kg/injection, schedule: Q01DX001 (ip), vehicle: saline, evaluated on day 37) 27 % of control; (T/C endpoint: median tumor weight change, dose: 200.0 mg/kg/injection, schedule: Q01DX001 (ip), vehicle: saline, evaluated on day 27) 37 % of control; (T/C endpoint: median tumor weight change, dose: 200.0 mg/kg/injection, schedule: Q01DX001 (ip), vehicle: saline, evaluated on day 28) 37 % of control; (T/C endpoint: median tumor weight change, dose: 200.0 mg/kg/injection, schedule: Q01DX001 (ip), vehicle: saline, evaluated on day 31) 5 % of control; (T/C endpoint: median tumor weight change, dose: 200.0 mg/kg/injection, schedule: Q01DX001 (ip), vehicle: saline, evaluated on day 37) -20 % of control [9 of 10 alive on day 37]. The T/C was 8 % of control (T/C endpoint: median tumor weight change, dose: 400.0 mg/kg/injection, schedule: Q01DX001 (ip), vehicle: saline, evaluated on day 27); -19 % of control (T/C endpoint: median tumor weight change, dose: 400.0 mg/kg/injection, schedule: Q01DX001 (ip), vehicle: saline, evaluated on day 28); 14 % of control (T/C endpoint: median tumor weight change, dose: 400.0 mg/kg/injection, schedule: Q01DX001 (ip), vehicle: saline, evaluated on day 31); -31 % of control [9 of 10 alive on day 37] (T/C endpoint: median tumor weight change, dose: 400.0 mg/kg/injection, schedule: Q01DX001 (ip), vehicle: saline, evaluated on day 37).
For the molecule `CN(CCN(C)C(=O)CCOS(C)(=O)=O)C(=O)CCOS(C)(=O)=O`, the survivor count is, setting by setting: (T/C endpoint: median tumor weight change, dose: 500.0 mg/kg/injection, schedule: Q01DX001 (ip), vehicle: saline) 4 of 10 on day 28; (T/C endpoint: median tumor weight change, dose: 500.0 mg/kg/injection, schedule: Q01DX001 (ip), vehicle: suspension in saline) 1 of 10 on day 29 and 6 of 10 on day 35; (T/C endpoint: median tumor weight change, dose: 1000.0 mg/kg/injection, schedule: Q01DX001 (ip), vehicle: suspension in saline) 0 of 10 on day 29 and 0 of 10 on day 35; (T/C endpoint: median tumor weight change, dose: 2000.0 mg/kg/injection, schedule: Q01DX001 (ip), vehicle: suspension in saline) 0 of 10 on day 35.
With `CCCCCCCCC(C)C(=O)N1CCCC1C(=O)N1C(CC(=O)CC)CC(C)CC1C(=O)NC(C)C(=O)NC(C)(C)C(=O)NC(C)(C)C(=O)NC(C(=O)NC(C)C(=O)NC(C)(C)C(=O)NC(C)(C)C(=O)NC(C)CN(C)CCO)C(C)CC` (centres undefined) (X1-P[X2]A[Aib][Aib]IA[Aib][Aib]-X3; configuration not given here), the survivor count is given as 2 of 10 on day 38 (T/C endpoint: median tumor weight change, dose: 6.25 mg/kg/injection, schedule: Q01DX001 (ip), vehicle: other); 0 of 10 on day 28 (T/C endpoint: median tumor weight change, dose: 6.25 mg/kg/injection, schedule: Q01DX001 (ip), vehicle: saline with Tween-80); 0 of 10 on day 38 (T/C endpoint: median tumor weight change, dose: 12.5 mg/kg/injection, schedule: Q01DX001 (ip), vehicle: other); 0 of 10 on day 28 (T/C endpoint: median tumor weight change, dose: 12.5 mg/kg/injection, schedule: Q01DX001 (ip), vehicle: saline with Tween-80); 0 of 10 on day 38 (T/C endpoint: median tumor weight change, dose: 25.0 mg/kg/injection, schedule: Q01DX001 (ip), vehicle: other); 0 of 10 on day 28 (T/C endpoint: median tumor weight change, dose: 25.0 mg/kg/injection, schedule: Q01DX001 (ip), vehicle: saline with Tween-80). The survivor count is reported as 0 of 10 on day 38 (T/C endpoint: median tumor weight change, dose: 50.0 mg/kg/injection, schedule: Q01DX001 (ip), vehicle: other) and 0 of 10 on day 28 (T/C endpoint: median tumor weight change, dose: 50.0 mg/kg/injection, schedule: Q01DX001 (ip), vehicle: saline with Tween-80).
With `C/C=C(\Cl)C1=CC(=O)C23CC2C2(C)COC1(O)C3(O)O2` (centres undefined), the T/C (T/C endpoint: median tumor weight (est.), dose: 12.0 mg/kg/injection, schedule: Q07DX005 (ip), vehicle: saline with Tween-80, evaluated on day 32) was 149 % of control [7 of 10 alive].
Take `CC(=O)NC(Cc1ccc(F)cc1)C(=O)O` (centres undefined): under “T/C endpoint: median tumor weight (est.), dose: 400.0 mg/kg/injection, schedule: Q07DX005 (ip), vehicle: saline with Tween-80, evaluated on day 30”, the T/C is 125 % of control. For the setting “T/C endpoint: median tumor weight (est.), dose: 1600.0 mg/kg/injection, schedule: Q07DX005 (ip), vehicle: saline with Tween-80”, the survivor count is reported as 2 of 10 on day 30.
In the case of `C[C@@](O)(/C=C/[C@H]1CC=CC(=O)O1)[C@@H](C[C@@H](O)\C=C/C=C\C=C\CO)OP(=O)(O)O`, the survivor count is, setting by setting: (T/C endpoint: median tumor weight change, dose: 125.0 mg/kg/injection, schedule: Q01DX001 (ip), vehicle: other) 0 of 10 on day 41; (T/C endpoint: median tumor weight change, dose: 250.0 mg/kg/injection, schedule: Q01DX001 (ip), vehicle: other) 0 of 10 on day 41.
For the molecule `O=C(NO)c1ccccc1`, for the setting “T/C endpoint: median tumor weight (est.), dose: 200.0 mg/kg/injection, schedule: Q07DX005 (ip), vehicle: suspension in saline, evaluated on day 30”, the T/C is 147 % of control [9 of 10 alive on day 30]. Further, the survivor count (T/C endpoint: median tumor weight (est.), dose: 400.0 mg/kg/injection, schedule: Q07DX005 (ip), vehicle: suspension in saline) is on record as 4 of 10 on day 30 and the survivor count (T/C endpoint: median tumor weight (est.), dose: 800.0 mg/kg/injection, schedule: Q07DX005 (ip), vehicle: suspension in saline) is 4 of 10 on day 30.
For the molecule `C=C(C(=O)O)C(N)C(=O)O` (centres undefined), the survivor count (T/C endpoint: median tumor weight change, dose: 1000.0 mg/kg/injection, schedule: Q01DX001 (ip), vehicle: saline) was 5 of 10 on day 36.
With `S=C(Nc1ccc(Cl)c(Cl)c1)N1c2ccccc2-n2cccc2C1c1cccnc1` (centres undefined), the survivor count (T/C endpoint: median tumor weight change, dose: 2000.0 mg/kg/injection, schedule: Q01DX001 (ip), vehicle: Klucel (hydroxypropylcellulose) (HPC)) was 4 of 10 on day 29.
As to `Cc1c(N)nc([C@H](CC(N)=O)NC[C@H](N)C(N)=O)nc1C(=O)N[C@H](C(=O)N[C@H](C)[C@@H](O)CC(=O)N[C@H](C(=O)NC(O[C@@H]1O[C@@H](C)[C@@H](N)[C@@H](O)[C@H]1O)C(O)c1nc(-c2nc(C(=O)NCCCCN)cs2)cs1)[C@@H](C)O)[C@@H](O[C@@H]1O[C@@H](CO)[C@@H](O)[C@H](O)[C@@H]1O[C@H]1O[C@H](CO)[C@@H](O)[C@H](OC(N)=O)[C@@H]1O)c1c[nH]cn1` (some centres undefined), under “T/C endpoint: median tumor weight change, dose: 2.0 mg/kg/injection, schedule: Q01DX001 (ip), vehicle: saline, evaluated on day 33”, the T/C is 130 % of control.
Turning to `Cc1cc(NCCN(C(C)C)C(C)C)nc(/N=C(\N)Nc2ccc(Cl)c(C(F)(F)F)c2)n1`, the survivor count (T/C endpoint: median tumor weight change, dose: 200.0 mg/kg/injection, schedule: Q01DX001 (ip), vehicle: Klucel (hydroxypropylcellulose) (HPC)) is 1 of 10 on day 27 and 4 of 10 on day 32.
`CC1(C)CC2(C)OC2C2(C1)N=NC(=Nc1ccccc1)O2` (centres undefined): the survivor count is given as 5 of 10 on day 38 (T/C endpoint: median tumor weight change, dose: 1000.0 mg/kg/injection, schedule: Q01DX001 (ip), vehicle: saline with Tween-80) and 3 of 10 on day 38 (T/C endpoint: median tumor weight change, dose: 2000.0 mg/kg/injection, schedule: Q01DX001 (ip), vehicle: saline with Tween-80).
Turning to `COc1ccc(S(=O)(=O)N/N=C/C(=O)O)cc1`, the T/C is, setting by setting: (T/C endpoint: median tumor weight (est.), dose: 12.5 mg/kg/injection, schedule: Q07DX005 (ip), vehicle: saline with Tween-80, evaluated on day 30) 141 % of control; (T/C endpoint: median tumor weight (est.), dose: 50.0 mg/kg/injection, schedule: Q07DX005 (ip), vehicle: saline with Tween-80, evaluated on day 30) 149 % of control [9 of 10 alive].
Regarding `NC(=S)c1cn(C2OC(CO)C(O)C2O)c2ncnc(N)c12` (centres undefined), the survivor count (T/C endpoint: median tumor weight change, dose: 25.0 mg/kg/injection, schedule: Q01DX001 (ip), vehicle: suspension in saline) was 6 of 10 on day 31 and the survivor count (T/C endpoint: median tumor weight change, dose: 50.0 mg/kg/injection, schedule: Q01DX001 (ip), vehicle: suspension in saline) was 0 of 10 on day 31.
As to `CSc1ncnc2c1ncn2C1OC(CO)C(O)C1O` (centres undefined), the survivor count (T/C endpoint: median tumor weight change, dose: 500.0 mg/kg/injection, schedule: Q01DX001 (ip), vehicle: saline + alcohol) is on record as 0 of 10 on day 35.
Consider `CN1CCN(Cc2nc3cccc4c3c([n+]2[O-])-c2ccccc2-4)CC1`, for which, under “T/C endpoint: median tumor weight (est.), dose: 400.0 mg/kg/injection, schedule: Q07DX005 (ip), vehicle: saline with Tween-80”, the survivor count is reported as 0 of 10 on day 30.
